{"source": "PubChem BioAssay AID504784 (Drosophila RNAi Screening Center, 2011)", "screen": "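Fly genes whose silencing alters how much lipid cells keep in droplets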 (primary screen)", "cell system": "Drosophila Kc167 embryonic cells", "reagent": "long dsRNA against Drosophila genes, about 250 ng dsRNA per well", "time to read-out": "4 days", "treatment": "cells fed 400 µM oleic acid bound to BSA", "measurement": "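Cells imaged and segmented; ratio of lipid droplet area to nuclear area, log-transformed, then normalised as a B-score over the screen; higher means more stored lipid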", "scale": "droplet/nuclear area B-score: higher = more stored lipid (overstorage)", "note": "The screen tested about 17,000 reagents; shown is an unselected part of those that have a named target and a result. 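Each column is one replicate's B-score; the combined score over replicates was not deposited, so single values may mislead.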 Not all columns of the deposit are shown."}
{"predicted target":"CG18628","dsRNA":"DRSC10328","droplet/nuclear area B-score, replicate 1":0.396}
{"predicted target":"Pkc53E","dsRNA":"DRSC07510","droplet/nuclear area B-score, replicate 1":-0.0501}
{"predicted target":"Pld3","dsRNA":"DRSC03167","droplet/nuclear area B-score, replicate 1":-0.393}
{"predicted target":"CG1116","dsRNA":"DRSC12166","droplet/nuclear area B-score, replicate 1":-0.823}
{"predicted target":"Nse4","dsRNA":"DRSC02239","droplet/nuclear area B-score, replicate 1":0.395}
{"predicted target":"CG6435","dsRNA":"DRSC06987","droplet/nuclear area B-score, replicate 1":-0.141}
{"predicted target":"TTLL15","dsRNA":"DRSC15543","droplet/nuclear area B-score, replicate 1":-0.133}
{"predicted target":"CG3732","dsRNA":"DRSC04410","droplet/nuclear area B-score, replicate 1":-3.49}
{"predicted target":"Hsp60C","dsRNA":"DRSC03036","droplet/nuclear area B-score, replicate 1":-0.511}
{"predicted target":"CG7879","dsRNA":"DRSC08600","droplet/nuclear area B-score, replicate 1":1.54}

An excerpt taken from the entries so far:
{"predicted target":"TTLL15","dsRNA":"DRSC15543","droplet/nuclear area B-score, replicate 1":-0.133}
{"predicted target":"CG3732","dsRNA":"DRSC04410","droplet/nuclear area B-score, replicate 1":-3.49}
{"predicted target":"Hsp60C","dsRNA":"DRSC03036","droplet/nuclear area B-score, replicate 1":-0.511}

Further results:
{"predicted target":"out","dsRNA":"DRSC19347","droplet/nuclear area B-score, replicate 1":-1.42}
{"predicted target":"CG15370","dsRNA":"DRSC18042","droplet/nuclear area B-score, replicate 1":0.525}
{"predicted target":"CG15370","dsRNA":"DRSC23277","droplet/nuclear area B-score, replicate 1":0.0968}
{"predicted target":"CG12605","dsRNA":"DRSC08286","droplet/nuclear area B-score, replicate 1":0.14}
{"predicted target":"Camp","dsRNA":"DRSC07004","droplet/nuclear area B-score, replicate 1":0.435}
{"predicted target":"Rala","dsRNA":"DRSC18703","droplet/nuclear area B-score, replicate 1":0.846}
{"predicted target":"mfrn","dsRNA":"DRSC15687","droplet/nuclear area B-score, replicate 1":2.65}
{"predicted target":"Nrt","dsRNA":"DRSC11237","droplet/nuclear area B-score, replicate 1":-0.148}
{"predicted target":"CG33768","dsRNA":"DRSC11715","droplet/nuclear area B-score, replicate 1":1.31}
{"predicted target":"CG5039","dsRNA":"DRSC15703","droplet/nuclear area B-score, replicate 1":-2.21}
{"predicted target":"IFT52","dsRNA":"DRSC03271","droplet/nuclear area B-score, replicate 1":0.517}
{"predicted target":"CG32603","dsRNA":"DRSC19409","droplet/nuclear area B-score, replicate 1":1.68}
{"predicted target":"CG32603","dsRNA":"DRSC21586","droplet/nuclear area B-score, replicate 1":1.1}
{"predicted target":"ranshi","dsRNA":"DRSC16564","droplet/nuclear area B-score, replicate 1":0.778}
{"predicted target":"CG12868","dsRNA":"DRSC06207","droplet/nuclear area B-score, replicate 1":-0.332}
{"predicted target":"CG33287","dsRNA":"DRSC22929","droplet/nuclear area B-score, replicate 1":0.557}
{"predicted target":"l(1)G0289","dsRNA":"DRSC18215","droplet/nuclear area B-score, replicate 1":1.68}
